In PubChem BioAssay AID540303 (National Center for Advancing Translational Sciences (NCATS), 2011):
The campaign covered roughly 330,000 compounds. About 1,000 (0.3%) were called active. Inconclusive results, whose numbers are uncertain, are shown with a selection of clear calls. Calls come from the whole dose curve; as a rule, active = well fitted inhibition curve with a large enough effect; inconclusive = small, poorly fitted or top-dose-only effect; inactive = no such curve, though single readings can be large or run the other way; tested in mouse RAW 264.7 cells. A potency beside an inconclusive call is a rough fit, not a confirmed value.

assay: qHTS for Inhibitors of Cell Surface uPA Generation; settings: cell surface uPA generation assay; series mostly up to 38.3 µM; activity change, negative = inhibition: at the top concentration; note: nearly all actives have a fitted effect of over 55% in size
Method in brief: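 RAW 264.7 cells, 4000/well, given compound (1:5 dilutions, up to 38.3 uM final) and incubated 24 h at 37 C. Blocked uPA-dependent LF entry keeps ATP high; ATPlite luminescence read, 5 s exposure.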
% is set by controls: 0 for no effect and ±100 for the full control effect; potency is the fitted concentration of half-maximal effect.

| Compound | activity change, negative = inhibition | Potency |
| --- | --- | --- |
| COc1cc(C2C=C(C34CC5CC(CC(C5)C3)C4)NC(=S)N2)cc(OC)c1OC (stereo not drawn) | inactive: -9.32% | – |
| Cn1cc(C(=O)NS(=O)(=O)Nc2ccc(Br)cc2)c2ccccc21 | – | inconclusive: 1 µM [inhibitor, partial curve, poor fit] |
| C=C1CCC[C@]2(C)C[C@H]3OC(=O)C(CNCC(C)C)[C@H]3CC12 (stereo partly drawn) | – | inconclusive: 12.6 µM [inhibitor, single point] |
| CCCC(NCC(O)COc1ccc(-c2ccccc2)cc1)c1ccccc1 (stereo not drawn) | – | inconclusive: 12.6 µM [inhibitor, single point] |
| O=C(NCc1ccc(Cl)cc1)N1CCN(Cc2ccccc2)CC1 | – | inconclusive: 31.6 µM [inhibitor, single point] |
| O=C(c1cccc(S(=O)(=O)NCc2ccccc2)c1)N1CCN(c2ccccc2Cl)CC1 | – | inconclusive: 12.6 µM [inhibitor, single point] |
| COc1ccc(C(=O)Nc2ccc3[nH]ncc3c2)cc1 | – | active: 3.16 µM |
| CC1=C(/C=C/C(C)=C/C=C/C(C)=C/C(=O)Nc2ccc(O)cc2)C(C)(C)CCC1 | – | inconclusive: 7.94 µM [inhibitor, single point] |
| Cc1ccn2cc(-c3cccc(NC(=O)CCC(=O)O)c3)nc2c1 | – | active: 3.55 µM |
| CCCCc1nnc(NC(=O)CC(=O)Nc2ccccc2C(=O)O)s1 | inactive: -5.82% | – |
| COc1ccc(/C=C/C(=O)c2cc(Cl)cc(Cl)c2O)c(OC)c1 | inactive: 0.678% | – |
| CN1CCN(c2ccccc2NC(=O)c2ccc([N+](=O)[O-])o2)CC1 | – | active: 4.47 µM |
| CC1(C)Cc2c(oc3ncn4ncnc4c23)CO1 | inactive: 8.91% | – |
| Cc1ccc(NC(=S)NNC(=O)c2ccccc2O)c(C)c1 | inactive: -3.96% | – |
| Cc1ccc(NC(=O)CCC(=O)N/N=C/c2ccc([N+](=O)[O-])o2)cc1C | – | inconclusive: 11.2 µM [inhibitor, partial curve, poor fit] |
| O/N=C(/c1ccc(F)cc1)C1CC1c1c(F)cccc1Cl (stereo not drawn) | inactive: -1.31% | – |
| O=S(=O)(c1ccccc1F)N1CCN(CCOc2ccccc2)CC1 | inactive: 7.42% | – |
| CC(C)NC(=S)NC(c1ccccc1)(c1ccccc1)c1ccccc1 | – | inconclusive: 11.2 µM [inhibitor, single point] |
| COc1ccccc1NC(=O)/C=C/C(N)=O | – | inconclusive: 11.2 µM [inhibitor, single point] |
| COc1ccc(C(=O)N(C)Cc2cnn(Cc3ccccc3)c2)cc1S(=O)(=O)N1CCOCC1 | – | active: 2 µM |
| COc1c(C(=O)NNC(=O)c2ccccc2)csc1Br | – | inconclusive: 5.62 µM [inhibitor, partial curve, poor fit] |
| O=C(Nc1ccc(OC(F)F)c(Cl)c1)c1ccccn1 | – | inconclusive: 28.2 µM [inhibitor, single point] |
| COc1cccc(/C=N/NC(=O)CNC(=O)COc2ccccc2)c1O | – | inconclusive: 7.08 µM [inhibitor, full curve, poor fit] |

Grouped by structure: the entries above containing four or more nitrogen atoms (5)

| Compound | activity change, negative = inhibition | Potency |
| --- | --- | --- |
| CCCCc1nnc(NC(=O)CC(=O)Nc2ccccc2C(=O)O)s1 | inactive: -5.82% | – |
| CN1CCN(c2ccccc2NC(=O)c2ccc([N+](=O)[O-])o2)CC1 | – | active: 4.47 µM |
| CC1(C)Cc2c(oc3ncn4ncnc4c23)CO1 | inactive: 8.91% | – |
| Cc1ccc(NC(=O)CCC(=O)N/N=C/c2ccc([N+](=O)[O-])o2)cc1C | – | inconclusive: 11.2 µM [inhibitor, partial curve, poor fit] |
| COc1ccc(C(=O)N(C)Cc2cnn(Cc3ccccc3)c2)cc1S(=O)(=O)N1CCOCC1 | – | active: 2 µM |

More entries follow:

| Compound | activity change, negative = inhibition | Potency |
| --- | --- | --- |
| C=CC(=O)Nc1cccc(Oc2cc(Cl)nc3[nH]ccc23)c1 | – | inconclusive: 10 µM [inhibitor, single point] |
| O=C(Nc1ccc(Cl)c(Cl)c1)Nc1ccccc1O | – | inconclusive: 11.2 µM [inhibitor, partial curve, poor fit] |
| Cc1ccc(NC(=O)C2CCN(S(=O)(=O)c3ccc4c(c3)NC(=O)C(C)S4)CC2)cc1Cl (stereo not drawn) | – | inconclusive: 1.41 µM [inhibitor, single point] |
| Cc1csc2nc(NC(=O)c3ccccc3)sc(=O)c12 | inactive: 1.24% | – |
| CCCCOc1ccc(N(CC(=O)NCCOC)C(=O)CCC(=O)Nc2ccccn2)cc1 | inactive: -4.12% | – |
| CN(C)c1ccc(/C=C2\SC(=O)N(CCc3nnc(N)s3)C2=O)cc1 | inactive: -4.53% | – |
| CN(C(=O)c1ccoc1)c1ccc2ccccc2c1 | – | inconclusive: 8.91 µM [inhibitor, single point] |
| NC(=O)CC(NC(=O)Cc1ccc(Br)cc1)c1ccc(NC2CC3CCC2C3)c([N+](=O)[O-])c1 (stereo not drawn) | – | inconclusive: 7.08 µM [inhibitor, partial curve] |
| CCn1c(=NC(=O)c2ccco2)sc2cccc(F)c21 | – | inconclusive: 10 µM [inhibitor, single point] |
| O=C(COc1ccccc1Cl)N1N=C(c2cccs2)CC1c1ccco1 (stereo not drawn) | – | inconclusive: 28.2 µM [inhibitor, single point] |
| Cc1ccc(OCC(=O)OCCN2C(=O)c3ccccc3C2=O)cc1C | inactive: -1.36% | – |
| CC1=[N+](C)c2ccc3ccccc3c2C1(C)C | – | active: 2.24 µM |
| CCOc1cc(C=O)cc(Br)c1OCC(=O)NCCc1ccccc1 | – | inconclusive: 0.0089 µM [inhibitor, full curve, poor fit] |
| O=C(NC(=O)c1ccccc1F)Nc1nc(-c2cccs2)cc(C(F)(F)F)n1 | – | inconclusive: 12.6 µM [inhibitor, partial curve, poor fit] |
| Cc1ccc2oc(-c3cccc(NC(=O)/C=C/c4cccc([N+](=O)[O-])c4)c3C)nc2c1 | inactive: -0.348% | – |
| O=[N+]([O-])c1ccc(N=Nc2ncc[nH]2)cc1 | – | inconclusive: 1 µM [inhibitor, full curve, poor fit] |
| CCCN1C(=O)COc2ccc(C(=O)c3ccccc3C(=O)O)cc21 | inactive: -3.52% | – |
| CN(C)C(CNC(=O)CN1C(=O)NC2(CCCC2)C1=O)c1ccccc1 (stereo not drawn) | – | inconclusive: 35.5 µM [inhibitor, partial curve, poor fit] |
| NS(=O)(=O)c1ccc(N/C=C\C(=O)c2ccc3ccccc3c2)cc1 | inactive: -0.546% | – |
| CCN(c1ccccc1)S(=O)(=O)c1ccc(NC(=O)c2nc(S(C)(=O)=O)ncc2Cl)cc1 | – | inconclusive: 3.55 µM [inhibitor, full curve, poor fit] |
| CCOC(=O)c1cnc2ccc(OCC)cc2c1NCc1ccccc1OC | inactive: 3.11% | – |
| O=C(Nc1ccc2ccccc2c1)N1CCCN(CCOc2ccccc2)CC1 | – | inconclusive: 3.98 µM [inhibitor, partial curve, poor fit] |
| Cc1ccccc1-c1nc(-c2ccccn2)no1 | – | inconclusive: 2 µM [inhibitor, partial curve, poor fit] |

| Compound | activity change, negative = inhibition | Potency |
| --- | --- | --- |
| Cc1ccc(-c2ccc(C3C(C#N)=C(N)Oc4n[nH]c(C)c43)o2)cc1 (stereo not drawn) | inactive: -6.41% | – |
| CC(C)N1CCc2c(sc(NC(=O)c3ccc4ccccc4c3)c2C(N)=O)C1 | – | inconclusive: 12.6 µM [inhibitor, single point] |
| Fc1cccc(CSc2nc3ccncc3[nH]2)c1 | – | inconclusive: 8.91 µM [inhibitor, partial curve, poor fit] |
| CCCCCC(=O)Nc1cccc(C2=NOC3(C2)C[C@H](C(N)=O)N(C(=O)COc2ccc(Cl)cc2)C3)c1 (stereo partly drawn) | – | inconclusive: 5.01 µM [inhibitor, single point] |
| CCCCN1C(=O)N(C)C2C1N(C)C(=O)N2CCCC (stereo not drawn) | inactive: -0.56% | – |
| Cc1c(C)c2ccc(OCC(=O)Nc3cccnc3)cc2oc1=O | – | inconclusive: 12.6 µM [inhibitor, single point] |
| O=C(CC(C(=O)NCc1ccccc1)c1nc2ccccc2c(=O)[nH]1)NCc1ccccc1 (stereo not drawn) | inactive: 10.6% | – |
| CC(C)C[C@H]1CNC(=S)N1CC1CCCN1C[C@H](Cc1ccccc1)N1C[C@H](Cc2ccc(O)cc2)N(CC2CCCCC2)C1=S (stereo partly drawn) | – | inconclusive: 28.2 µM [inhibitor, single point] |
| C=CCn1c(NCc2ccccc2OC)nc2ccccc21 | – | inconclusive: 31.6 µM [inhibitor, single point] |
| COc1ccc(NC2=NCC(Cc3ccc(Br)cc3)S2)cc1 (stereo not drawn) | inactive: -11.3% | – |
| COc1cccc(NC(=O)Cc2ccccc2)c1 | – | inconclusive: 5.62 µM [inhibitor, partial curve, poor fit] |
| O=C(c1ccc(CSc2nc3ccncc3[nH]2)cc1)N1CCCCC1 | – | inconclusive: 3.98 µM [inhibitor, partial curve] |
| COc1ccc(S(=O)(=O)N2CCC3(CC2)OCCN3S(=O)(=O)c2ccc(OC)cc2)cc1 | – | inconclusive: 11.2 µM [inhibitor, single point] |
| CCN(c1ccccc1)S(=O)(=O)c1ccc(Cl)c(NC(=O)CNCc2ccccc2OC)c1 | – | inconclusive: 12.6 µM [inhibitor, single point] |
| O=C(O)CSc1cc(NS(=O)(=O)c2ccc(Br)cc2)c2ccccc2c1O | – | inconclusive: 10 µM [inhibitor, single point] |
| CCC1(c2ccc(F)cc2)NC(=O)N(CC(=O)Nc2cc(S(=O)(=O)N(C)C)ccc2Cl)C1=O (stereo not drawn) | – | inconclusive: 28.2 µM [inhibitor, single point] |
| O=C(N/N=C/c1ccc(O)cc1)c1cc(-c2ccccc2)nc2ccccc12 | – | inconclusive: 8.91 µM [inhibitor, partial curve, poor fit] |
| C/C(=N\NC(=S)Nc1c(C)cccc1C)c1cc2ccccc2o1 | inactive: 14.3% | – |
| C[C@]12c3[nH]c4cc(-c5ccco5)ccc4c3CCN1C(=O)[C@@H](CC(=O)NCC13CC4CC(CC(C4)C1)C3)C[C@@H]2C(=O)N1CCCCC1 | – | inconclusive: 28.2 µM [inhibitor, single point] |
| CCN(CC)C(=O)[C@H]1C[C@H](CC(=O)NCC23CC4CC(CC(C4)C2)C3)C(=O)N2CCc3c([nH]c4cc(CCC(=O)N(C)C)ccc34)[C@]12C | – | inconclusive: 15.8 µM [inhibitor, single point] |
| CCOC(=O)c1ccc(NC(=O)COc2ccccc2CNCCc2ccccc2)cc1 | – | inconclusive: 14.1 µM [inhibitor, single point] |
| C=C(C)Cn1c(CN(C)Cc2ccccc2)nc2c1c(=O)n(C)c(=O)n2C | – | inconclusive: 7.94 µM [inhibitor, partial curve, poor fit] |
